Reference: PMC10873344
Results are given in words; binding and its absence hold for the method and conditions named. In cells and extracts the contact can be indirect. Here binding means that the protein was enriched with, or labelled near, the bait; the list need not be complete.

Protein sequences, listed by entry. Tags and fused reporters are not part of them. Lines headed by an entry give the natural chain unless they say otherwise; changes in a name come on top. Chains listed by the source or under a name are the forms on record and can include a tag or linker. Residues count along the entry.
UniProt Q9UBV2, residues 22-794: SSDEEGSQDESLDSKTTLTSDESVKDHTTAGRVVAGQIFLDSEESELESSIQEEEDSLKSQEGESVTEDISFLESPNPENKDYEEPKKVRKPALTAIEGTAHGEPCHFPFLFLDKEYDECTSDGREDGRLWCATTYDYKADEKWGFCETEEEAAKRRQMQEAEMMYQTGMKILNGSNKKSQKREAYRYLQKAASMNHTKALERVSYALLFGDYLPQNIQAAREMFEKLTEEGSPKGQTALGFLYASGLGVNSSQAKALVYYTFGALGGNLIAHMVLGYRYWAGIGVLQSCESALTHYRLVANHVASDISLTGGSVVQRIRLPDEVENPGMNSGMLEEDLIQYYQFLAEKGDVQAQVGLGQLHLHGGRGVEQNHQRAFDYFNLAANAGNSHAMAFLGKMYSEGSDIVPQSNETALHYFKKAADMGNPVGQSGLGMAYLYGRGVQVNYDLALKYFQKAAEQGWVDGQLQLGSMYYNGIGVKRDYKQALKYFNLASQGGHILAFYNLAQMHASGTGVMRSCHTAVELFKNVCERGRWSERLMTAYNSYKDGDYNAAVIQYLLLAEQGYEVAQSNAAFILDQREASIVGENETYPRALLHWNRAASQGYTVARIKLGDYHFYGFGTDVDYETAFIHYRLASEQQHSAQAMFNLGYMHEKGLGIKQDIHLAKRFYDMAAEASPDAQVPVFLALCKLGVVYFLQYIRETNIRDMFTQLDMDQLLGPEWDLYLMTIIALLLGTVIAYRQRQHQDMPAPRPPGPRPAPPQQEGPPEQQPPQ
HRD1 (HMG-CoA reductase degradation 1), endogenous human (human (endogenous in HEK293T)) (Q86TM6, form named): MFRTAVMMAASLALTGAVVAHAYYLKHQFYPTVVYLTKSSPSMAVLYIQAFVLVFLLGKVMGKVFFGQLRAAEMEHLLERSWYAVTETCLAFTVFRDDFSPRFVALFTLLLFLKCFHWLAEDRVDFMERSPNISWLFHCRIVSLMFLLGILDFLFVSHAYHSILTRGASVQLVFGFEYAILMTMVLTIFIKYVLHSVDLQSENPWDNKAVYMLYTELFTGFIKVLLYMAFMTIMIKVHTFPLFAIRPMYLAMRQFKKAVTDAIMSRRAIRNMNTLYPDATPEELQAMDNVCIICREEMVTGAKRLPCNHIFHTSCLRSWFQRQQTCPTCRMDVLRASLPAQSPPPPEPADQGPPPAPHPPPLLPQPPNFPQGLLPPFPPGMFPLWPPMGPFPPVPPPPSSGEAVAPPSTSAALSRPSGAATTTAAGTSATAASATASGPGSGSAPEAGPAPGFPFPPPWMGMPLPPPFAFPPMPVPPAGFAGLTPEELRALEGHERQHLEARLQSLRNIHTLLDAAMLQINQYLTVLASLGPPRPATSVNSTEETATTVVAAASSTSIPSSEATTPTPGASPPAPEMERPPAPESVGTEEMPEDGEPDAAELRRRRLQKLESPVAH

biological target: SEL1L (suppressor of lin-12-like), endogenous human (human (endogenous in HEK293T)) (UniProt Q9UBV2); assay: affinity purification with mass spectrometry; IP of endogenous SEL1L or HRD1 from WT, SEL1L-/- or HRD1-/- HEK293T lysates (NP-40 lysis buffer, protein A agarose), LC-MS, three independent repeats, knock-out cells with IgG as negative control

Row | Binder | binding
1 | OS9 (Osteosarcoma amplified 9), endogenous human (protein, UniProt Q13438 26-667) GGVGSLNLEELSEMRYGIEILPLPVMGGQSQSSDVVIVSSKYKQRYECRLPAGAIHFQREREEETPAYQGPGIPELLSPMRDAPCLLKTKDWWTYEFCYGRHIQQYHMEDSEIKGEVLYLGYYQSAFDWDDETAKASKQHRLKRYHSQTYGNGSKCDLNGRPREAEVRFLCDEGAGISGDYIDRVDEPLSCSYVLTIRTPRLCPHPLLRPPPSAAPQAILCHPSLQPEEYMAYVQRQADSKQYGDKIIEELQDLGPQVWSETKSGVAPQKMAGASPTKDDSKDSDFWKMLNEPEDQAPGGEEVPAEEQDPSPEAADSASGAPNDFQNNVQVKVIRSPADLIRFIEELKGGTKKGKPNIGQEQPVDDAAEVPQREPEKERGDPERQREMEEEEDEDEDEDEDEDERQLLGEFEKELEGILLPSDRDRLRSEVKAGMERELENIIQETEKELDPDGLKKESERDRAMLALTSTLNKLIKRLEEKQSPELVKKHKKKRVVPKKPPPSPQPTEEDPEHRVRVRVTKLRLGGPNQDLTVLEMKRENPQLKQIEGLVKELLEREGLTAAGKIEIKIVRPWAEGTEEGARWLTDEDTRNLKEIFFNILVPGAEEAQKERQRQKELESNYRRVWGSPGGEGTGDLDEFDF | binds
2 | UBE2J1, endogenous human (enzyme, UniProt Q9Y385 1-318) METRYNLKSPAVKRLMKEAAELKDPTDHYHAQPLEDNLFEWHFTVRGPPDSDFDGGVYHGRIVLPPEYPMKPPSIILLTANGRFEVGKKICLSISGHHPETWQPSWSIRTALLAIIGFMPTKGEGAIGSLDYTPEERRALAKKSQDFCCEGCGSAMKDVLLPLKSGSDSSQADQEAKELARQISFKAEVNSSGKTISESDLNHSFSLTDLQDDIPTTFQGATASTSYGLQNSSAASFHQPTQPVAKNTSMSPRQRRAQQQSQRRLSTSPDVIQGHQPRDNHTDHGGSAVLIVILTLALAALIFRRIYLANEYIFDFEL | binds
3 | DERL2, endogenous human (protein, UniProt Q9GZP9 1-239) MAYQSLRLEYLQIPPVSRAYTTACVLTTAAVQLELITPFQLYFNPELIFKHFQIWRLITNFLFFGPVGFNFLFNMIFLYRYCRMLEEGSFRGRTADFVFMFLFGGFLMTLFGLFVSLVFLGQAFTIMLVYVWSRRNPYVRMNFFGLLNFQAPFLPWVLMGFSLLLGNSIIVDLLGIAVGHIYFFLEDVFPNQPGGIRILKTPSILKAIFDTPDEDPNYNPLPEERPGGFAWGEGQRLGG | binds

biological target: HRD1 (HMG-CoA reductase degradation 1), endogenous human (human (endogenous in HEK293T)) (UniProt Q86TM6); assay: as above

Row | Binder | binding
4 | HERP1, endogenous human (protein, UniProt Q15011 1-391) MESETEPEPVTLLVKSPNQRHRDLELSGDRGWSVGHLKAHLSRVYPERPRPEDQRLIYSGKLLLDHQCLRDLLPKQEKRHVLHLVCNVKSPSKMPEINAKVAESTEEPAGSNRGQYPEDSSSDGLRQREVLRNLSSPGWENISRPEAAQQAFQGLGPGFSGYTPYGWLQLSWFQQIYARQYYMQYLAATAASGAFVPPPSAQEIPVVSAPAPAPIHNQFPAENQPANQNAAPQVVVNPGANQNLRMNAQGGPIVEEDDEINRDWLDWTYSAATFSVFLSILYFYSSLSRFLMVMGATVVMYLHHVGWFPFRPRPVQNFPNDGPPPDVVNQDPNNNLQEGTDPETEDPNHLPPDRDVLDGEQTSPSFMSTAWLVFKTFFASLLPEGPPAIAN | binds
5 | FAM8A1, endogenous human (protein, UniProt Q9UBU6 1-413) MAEGPEEARGHPPGQDDGGGDHEPVPSLRGPPTTAVPCPRDDPQAEPQAPGRPTAPGLAAAAAADKLEPPRELRKRGEAASGSGAELQEQAGCEAPEAAAPRERPARLSAREYSRQVHEWLWQSYCGYLTWHSGLAAFPAYCSPQPSPQSFPSGGAAVPQAAAPPPPQLGYYNPFYFLSPGAAGPDPRTAAGISTPAPVAGLGPRAPHVQASVRATPVTRVGSAAPSRSPSETGRQAGREYVIPSLAHRFMAEMVDFFILFFIKATIVLSIMHLSGIKDISKFAMHYIIEEIDEDTSMEDLQKMMVVALIYRLLVCFYEIICIWGAGGATPGKFLLGLRVVTCDTSVLIAPSRVLVIPSSNVSITTSTIRALIKNFSIASFFPAFITLLFFQHNRTAYDIVAGTIVVKRNGVR | binds
6 | ABCD3, endogenous human (protein, UniProt P28288 1-659) MAAFSKYLTARNSSLAGAAFLLLCLLHKRRRALGLHGKKSGKPPLQNNEKEGKKERAVVDKVFFSRLIQILKIMVPRTFCKETGYLVLIAVMLVSRTYCDVWMIQNGTLIESGIIGRSRKDFKRYLLNFIAAMPLISLVNNFLKYGLNELKLCFRVRLTKYLYEEYLQAFTYYKMGNLDNRIANPDQLLTQDVEKFCNSVVDLYSNLSKPFLDIVLYIFKLTSAIGAQGPASMMAYLVVSGLFLTRLRRPIGKMTITEQKYEGEYRYVNSRLITNSEEIAFYNGNKREKQTVHSVFRKLVEHLHNFILFRFSMGFIDSIIAKYLATVVGYLVVSRPFLDLSHPRHLKSTHSELLEDYYQSGRMLLRMSQALGRIVLAGREMTRLAGFTARITELMQVLKDLNHGKYERTMVSQQEKGIEGVQVIPLIPGAGEIIIADNIIKFDHVPLATPNGDVLIRDLNFEVRSGANVLICGPNGCGKSSLFRVLGELWPLFGGRLTKPERGKLFYVPQRPYMTLGTLRDQVIYPDGREDQKRKGISDLVLKEYLDNVQLGHILEREGGWDSVQDWMDVLSGGEKQRMAMARLFYHKPQFAILDECTSAVSVDVEGYIYSHCRKVGITLFTVSHRKSLWKHHEYYLHMDGRGNYEFKQITEDTVEFGS | binds
